Some of the results follow.
Assays:
Experiment in all cases: log2 fold change, soluble protein after heating vs DMSO (PISA); higher = thermal stabilisation; K562 lysate, 10 uM; active = over 0.2 and 3.5 SD of the protein, either way, in both replicates (recomputed)
nilotinib = compound: Cc1cn(-c2cc(NC(=O)c3ccc(C)c(Nc4nccc(-c5cccnc5)n4)c3)cc(C(F)(F)F)c2)cn1 [nilotinib]
Procedure, shortened: (§1)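 Thermal stability, expressed as log-two fold change relative to solvent controls, is given from duplicates. Crude K562 extract in PBS pH 7.4 with 1 mM MgCl2, at 1 mg/mL protein, was treated with 10 μM compound for 30 min and heated in aliquots for 3 min across 48°C-58°C. After pooling, adjustment to 0.5% NP-40 at 4°C and centrifugation at 21,000xg for 90 min, supernatant protein was measured by TMTpro 16plex LC-MS/MS with channel sums equalised.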

By UniProt entry, the sequences of proteins in these tests, tags left out. Where a name states a change or a piece, a line headed by the entry shows the natural chain unless it says otherwise.
UniProt P17844: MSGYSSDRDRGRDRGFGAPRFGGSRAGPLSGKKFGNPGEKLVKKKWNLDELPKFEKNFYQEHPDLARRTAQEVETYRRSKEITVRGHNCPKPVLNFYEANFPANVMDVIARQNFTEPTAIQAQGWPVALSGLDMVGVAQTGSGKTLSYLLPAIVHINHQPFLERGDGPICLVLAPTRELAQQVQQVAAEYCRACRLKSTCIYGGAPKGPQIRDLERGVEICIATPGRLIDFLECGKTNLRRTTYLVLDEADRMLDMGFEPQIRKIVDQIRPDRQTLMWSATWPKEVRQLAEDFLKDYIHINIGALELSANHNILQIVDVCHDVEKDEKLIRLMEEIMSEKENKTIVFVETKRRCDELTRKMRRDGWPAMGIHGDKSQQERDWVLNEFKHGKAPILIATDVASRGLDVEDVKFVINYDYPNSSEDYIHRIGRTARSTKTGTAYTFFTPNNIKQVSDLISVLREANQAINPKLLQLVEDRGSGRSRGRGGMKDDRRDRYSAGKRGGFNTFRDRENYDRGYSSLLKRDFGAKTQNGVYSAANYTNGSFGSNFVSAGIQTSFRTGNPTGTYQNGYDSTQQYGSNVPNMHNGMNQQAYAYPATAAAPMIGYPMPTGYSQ
UniProt Q9H1C7: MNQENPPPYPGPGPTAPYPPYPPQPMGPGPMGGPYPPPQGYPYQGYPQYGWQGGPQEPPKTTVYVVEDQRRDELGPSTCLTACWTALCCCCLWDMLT
UniProt Q9BTE7: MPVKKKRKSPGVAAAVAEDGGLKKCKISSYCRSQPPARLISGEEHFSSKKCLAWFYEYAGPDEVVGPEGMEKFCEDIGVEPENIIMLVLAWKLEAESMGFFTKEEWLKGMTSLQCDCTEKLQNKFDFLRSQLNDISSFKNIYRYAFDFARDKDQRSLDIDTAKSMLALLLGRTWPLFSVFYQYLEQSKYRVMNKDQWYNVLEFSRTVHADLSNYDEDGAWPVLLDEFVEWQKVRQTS
UniProt Q99418: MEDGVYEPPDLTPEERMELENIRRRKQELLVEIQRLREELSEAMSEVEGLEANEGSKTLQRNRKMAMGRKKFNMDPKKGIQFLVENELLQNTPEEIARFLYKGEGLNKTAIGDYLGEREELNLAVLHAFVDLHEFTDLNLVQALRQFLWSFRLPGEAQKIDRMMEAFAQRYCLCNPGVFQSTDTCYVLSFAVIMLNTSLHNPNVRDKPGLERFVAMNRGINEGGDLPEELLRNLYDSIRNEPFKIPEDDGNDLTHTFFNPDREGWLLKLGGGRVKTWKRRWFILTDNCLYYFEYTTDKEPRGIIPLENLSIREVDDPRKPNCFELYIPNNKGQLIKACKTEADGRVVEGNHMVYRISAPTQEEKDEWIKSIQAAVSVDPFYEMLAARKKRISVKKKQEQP
UniProt Q6VVX0: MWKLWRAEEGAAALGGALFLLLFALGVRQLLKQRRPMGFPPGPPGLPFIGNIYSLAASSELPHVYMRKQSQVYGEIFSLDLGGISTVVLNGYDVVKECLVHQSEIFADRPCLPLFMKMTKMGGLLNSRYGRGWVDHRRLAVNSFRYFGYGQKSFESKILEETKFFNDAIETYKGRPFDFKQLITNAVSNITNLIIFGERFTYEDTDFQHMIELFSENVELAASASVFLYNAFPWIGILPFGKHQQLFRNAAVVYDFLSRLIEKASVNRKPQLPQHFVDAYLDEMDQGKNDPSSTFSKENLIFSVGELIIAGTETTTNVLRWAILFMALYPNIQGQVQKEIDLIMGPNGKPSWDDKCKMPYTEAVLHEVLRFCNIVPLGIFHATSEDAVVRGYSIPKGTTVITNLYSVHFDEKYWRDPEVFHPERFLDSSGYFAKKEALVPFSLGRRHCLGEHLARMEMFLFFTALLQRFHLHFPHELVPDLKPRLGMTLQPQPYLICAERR
UniProt Q96FC9: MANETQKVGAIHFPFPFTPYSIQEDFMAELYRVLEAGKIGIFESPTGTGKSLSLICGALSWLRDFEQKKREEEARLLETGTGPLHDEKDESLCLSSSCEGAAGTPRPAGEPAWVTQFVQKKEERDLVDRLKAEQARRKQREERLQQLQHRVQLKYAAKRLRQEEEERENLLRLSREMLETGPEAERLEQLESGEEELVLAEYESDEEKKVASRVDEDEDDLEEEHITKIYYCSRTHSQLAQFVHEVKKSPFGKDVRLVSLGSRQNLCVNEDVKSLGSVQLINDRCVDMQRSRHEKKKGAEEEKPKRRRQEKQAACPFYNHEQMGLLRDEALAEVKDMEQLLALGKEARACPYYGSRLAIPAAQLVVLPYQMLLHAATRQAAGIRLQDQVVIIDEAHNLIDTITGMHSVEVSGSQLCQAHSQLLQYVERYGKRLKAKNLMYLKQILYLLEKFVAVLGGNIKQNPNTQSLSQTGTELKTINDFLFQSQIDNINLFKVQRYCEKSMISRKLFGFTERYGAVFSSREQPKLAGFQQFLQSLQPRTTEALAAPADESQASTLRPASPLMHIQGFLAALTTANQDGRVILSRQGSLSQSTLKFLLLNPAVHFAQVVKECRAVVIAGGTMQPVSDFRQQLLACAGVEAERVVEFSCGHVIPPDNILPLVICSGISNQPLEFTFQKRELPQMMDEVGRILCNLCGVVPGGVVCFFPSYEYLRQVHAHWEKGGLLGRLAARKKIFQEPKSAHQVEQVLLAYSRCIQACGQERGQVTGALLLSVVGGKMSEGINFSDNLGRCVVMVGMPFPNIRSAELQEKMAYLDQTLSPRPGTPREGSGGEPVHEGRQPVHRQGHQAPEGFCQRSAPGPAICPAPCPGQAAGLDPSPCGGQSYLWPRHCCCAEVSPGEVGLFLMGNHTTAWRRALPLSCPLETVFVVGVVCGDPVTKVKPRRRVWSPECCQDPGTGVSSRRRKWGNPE
UniProt Q9NUL7: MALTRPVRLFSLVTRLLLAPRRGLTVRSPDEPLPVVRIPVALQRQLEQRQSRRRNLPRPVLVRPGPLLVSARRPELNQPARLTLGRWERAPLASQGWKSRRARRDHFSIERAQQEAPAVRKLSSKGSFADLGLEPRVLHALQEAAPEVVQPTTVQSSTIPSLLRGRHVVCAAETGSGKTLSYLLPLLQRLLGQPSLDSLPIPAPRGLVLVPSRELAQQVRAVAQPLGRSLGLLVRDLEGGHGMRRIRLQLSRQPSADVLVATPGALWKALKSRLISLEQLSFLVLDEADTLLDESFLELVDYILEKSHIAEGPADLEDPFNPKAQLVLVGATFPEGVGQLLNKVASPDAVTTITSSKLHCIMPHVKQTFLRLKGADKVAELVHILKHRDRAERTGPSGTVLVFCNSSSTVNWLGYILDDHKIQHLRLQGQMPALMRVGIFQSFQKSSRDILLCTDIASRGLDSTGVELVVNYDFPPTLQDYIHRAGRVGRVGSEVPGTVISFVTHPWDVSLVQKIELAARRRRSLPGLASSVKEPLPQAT
UniProt Q08345: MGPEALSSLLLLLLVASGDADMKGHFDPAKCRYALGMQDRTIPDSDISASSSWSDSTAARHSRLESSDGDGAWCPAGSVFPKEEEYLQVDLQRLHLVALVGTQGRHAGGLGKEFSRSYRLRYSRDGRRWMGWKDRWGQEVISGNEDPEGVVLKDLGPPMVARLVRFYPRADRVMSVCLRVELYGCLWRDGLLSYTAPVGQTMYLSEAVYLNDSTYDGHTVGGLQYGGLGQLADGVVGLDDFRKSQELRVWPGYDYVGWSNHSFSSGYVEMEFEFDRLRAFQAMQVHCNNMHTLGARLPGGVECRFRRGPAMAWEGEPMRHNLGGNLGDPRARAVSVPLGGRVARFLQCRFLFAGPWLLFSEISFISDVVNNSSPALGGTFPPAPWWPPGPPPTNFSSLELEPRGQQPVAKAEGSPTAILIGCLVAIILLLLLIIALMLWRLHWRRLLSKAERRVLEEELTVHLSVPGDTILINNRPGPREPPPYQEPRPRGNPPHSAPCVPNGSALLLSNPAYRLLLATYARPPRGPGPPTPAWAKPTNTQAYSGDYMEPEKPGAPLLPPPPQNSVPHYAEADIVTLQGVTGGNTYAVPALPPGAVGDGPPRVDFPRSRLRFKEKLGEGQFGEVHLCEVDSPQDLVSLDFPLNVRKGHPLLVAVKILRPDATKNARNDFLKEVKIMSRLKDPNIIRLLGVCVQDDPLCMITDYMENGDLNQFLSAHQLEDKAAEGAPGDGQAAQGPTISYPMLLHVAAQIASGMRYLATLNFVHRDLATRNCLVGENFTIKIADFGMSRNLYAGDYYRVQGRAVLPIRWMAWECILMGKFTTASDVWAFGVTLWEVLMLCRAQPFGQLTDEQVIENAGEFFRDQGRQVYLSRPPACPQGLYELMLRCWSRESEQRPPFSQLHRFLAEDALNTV
UniProt Q8WV16: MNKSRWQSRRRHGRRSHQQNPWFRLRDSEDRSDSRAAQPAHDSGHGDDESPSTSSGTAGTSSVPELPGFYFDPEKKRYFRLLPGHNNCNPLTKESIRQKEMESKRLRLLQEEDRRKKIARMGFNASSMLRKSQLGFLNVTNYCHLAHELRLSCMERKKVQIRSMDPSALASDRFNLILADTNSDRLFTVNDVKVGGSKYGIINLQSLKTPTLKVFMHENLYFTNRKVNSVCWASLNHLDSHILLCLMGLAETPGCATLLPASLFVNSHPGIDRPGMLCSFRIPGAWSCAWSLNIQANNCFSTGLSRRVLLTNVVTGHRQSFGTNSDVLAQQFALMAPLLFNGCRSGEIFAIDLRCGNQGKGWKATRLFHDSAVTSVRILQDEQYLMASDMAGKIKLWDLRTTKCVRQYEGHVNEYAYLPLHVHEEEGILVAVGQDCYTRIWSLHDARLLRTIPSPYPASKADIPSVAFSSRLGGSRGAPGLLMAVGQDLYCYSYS
UniProt Q5QP82: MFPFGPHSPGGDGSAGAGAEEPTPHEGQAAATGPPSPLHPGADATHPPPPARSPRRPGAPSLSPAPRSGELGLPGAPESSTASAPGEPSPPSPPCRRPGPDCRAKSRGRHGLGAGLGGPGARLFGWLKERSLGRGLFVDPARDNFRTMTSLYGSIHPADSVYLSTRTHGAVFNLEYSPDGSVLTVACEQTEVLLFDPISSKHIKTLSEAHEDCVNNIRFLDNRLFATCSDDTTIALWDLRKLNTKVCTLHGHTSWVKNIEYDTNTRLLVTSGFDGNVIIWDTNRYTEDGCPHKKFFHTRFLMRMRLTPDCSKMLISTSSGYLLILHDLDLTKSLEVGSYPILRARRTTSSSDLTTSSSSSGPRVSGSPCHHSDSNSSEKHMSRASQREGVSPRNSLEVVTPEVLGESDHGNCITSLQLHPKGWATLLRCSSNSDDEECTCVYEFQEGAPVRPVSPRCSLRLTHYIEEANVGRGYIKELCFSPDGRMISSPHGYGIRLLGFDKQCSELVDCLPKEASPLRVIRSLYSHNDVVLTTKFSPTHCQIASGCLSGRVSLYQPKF
UniProt Q9BWK5: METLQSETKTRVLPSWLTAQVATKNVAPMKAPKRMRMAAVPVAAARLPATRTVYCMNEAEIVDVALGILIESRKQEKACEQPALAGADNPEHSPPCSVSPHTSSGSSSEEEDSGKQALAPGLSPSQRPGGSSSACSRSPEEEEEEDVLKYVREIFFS
UniProt Q15438: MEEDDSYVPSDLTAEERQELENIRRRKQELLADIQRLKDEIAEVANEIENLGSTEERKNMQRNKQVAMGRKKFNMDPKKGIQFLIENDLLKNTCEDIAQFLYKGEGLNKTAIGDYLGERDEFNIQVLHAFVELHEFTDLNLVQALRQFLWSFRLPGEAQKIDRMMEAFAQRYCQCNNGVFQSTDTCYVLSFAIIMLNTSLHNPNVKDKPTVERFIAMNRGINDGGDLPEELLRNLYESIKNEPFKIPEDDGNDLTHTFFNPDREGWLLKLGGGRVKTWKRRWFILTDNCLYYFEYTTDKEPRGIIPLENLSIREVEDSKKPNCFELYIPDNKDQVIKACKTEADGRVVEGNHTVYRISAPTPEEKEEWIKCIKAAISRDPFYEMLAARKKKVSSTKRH
UniProt Q9NVP1: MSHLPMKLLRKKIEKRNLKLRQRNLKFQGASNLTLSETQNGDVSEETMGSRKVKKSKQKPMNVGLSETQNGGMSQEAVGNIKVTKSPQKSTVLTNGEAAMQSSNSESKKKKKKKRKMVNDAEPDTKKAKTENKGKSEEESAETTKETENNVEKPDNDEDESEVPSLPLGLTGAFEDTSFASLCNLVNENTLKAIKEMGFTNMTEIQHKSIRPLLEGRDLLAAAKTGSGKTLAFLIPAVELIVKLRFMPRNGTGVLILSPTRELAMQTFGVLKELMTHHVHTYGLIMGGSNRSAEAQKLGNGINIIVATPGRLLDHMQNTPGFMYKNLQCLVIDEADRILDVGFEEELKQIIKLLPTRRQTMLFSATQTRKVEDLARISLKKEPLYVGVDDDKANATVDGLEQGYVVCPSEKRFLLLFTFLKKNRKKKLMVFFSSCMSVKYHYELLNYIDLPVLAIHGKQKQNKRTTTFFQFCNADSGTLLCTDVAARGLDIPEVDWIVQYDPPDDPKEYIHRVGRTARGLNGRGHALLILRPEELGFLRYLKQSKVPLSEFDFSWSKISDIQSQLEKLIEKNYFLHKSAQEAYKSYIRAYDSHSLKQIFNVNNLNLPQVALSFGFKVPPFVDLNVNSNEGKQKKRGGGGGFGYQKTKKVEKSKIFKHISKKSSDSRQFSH

[1] = compound: Cc1nc(Nc2n[nH]c3c2CN(C(=O)N[C@H](CN(C)C)c2ccccc2)C3(C)C)c2sccc2n1
Procedure, shortened: as §1

dasatinib = compound: Cc1nc(Nc2ncc(C(=O)Nc3c(C)cccc3Cl)s2)cc(N2CCN(CCO)CC2)n1 [dasatinib]
Procedure, shortened: as §1

[2] = compound: Cc1ncc(-c2ccnc(Nc3ccc(S(C)(=O)=O)cc3)n2)n1C(C)C
Procedure, shortened: as §1

[3] = compound: Cn1cc(-c2ccc3c(c2)CCN3C(=O)Cc2cccc(C(F)(F)F)c2)c2c(N)ncnc21
Procedure, shortened: as §1

quisinostat = compound: Cn1cc(CNCC2CCN(c3ncc(C(=O)NO)cn3)CC2)c2ccccc21 [quisinostat]
Procedure, shortened: as §1

tipifarnib = compound: Cn1cncc1[C@@](N)(c1ccc(Cl)cc1)c1ccc2c(c1)c(-c1cccc(Cl)c1)cc(=O)n2C [tipifarnib]
Procedure, shortened: as §1

[4] = compound: NC(=O)Nc1cc(-c2cccc(F)c2)sc1C(=O)N[C@H]1CCCNC1
Procedure, shortened: as §1

[5] = compound: NC(=O)c1cnc(N[C@@H]2CCCC[C@@H]2N)nc1Nc1cccc(-n2nccn2)c1
Procedure, shortened: as §1

[6] = compound: NC1(c2ccc(-c3nc4ccn5c(=O)[nH]nc5c4cc3-c3ccccc3)cc2)CCC1
Procedure, shortened: as §1

[7] = compound: NCC(=O)Nc1ccc(-n2nc(C(F)(F)F)cc2-c2ccc3c(ccc4ccccc43)c2)cc1
Procedure, shortened: as §1

vorinostat = compound: O=C(CCCCCCC(=O)Nc1ccccc1)NO [vorinostat]
Procedure, shortened: as §1

silmitasertib = compound: O=C(O)c1ccc2c(c1)nc(Nc1cccc(Cl)c1)c1ccncc12 [silmitasertib]
Procedure, shortened: as §1

[8] = compound: O=C1NC(=O)C(c2cnc3ccccn23)=C1c1cn2c3c(cc(F)cc13)CN(C(=O)N1CCCCC1)CC2
Procedure, shortened: as §1

entospletinib = compound: c1cn2cc(-c3ccc4cn[nH]c4c3)nc(Nc3ccc(N4CCOCC4)cc3)c2n1 [entospletinib]
Procedure, shortened: as §1

Measured: log2 fold change

DDX5 (UniProt P17844)
inactive: nilotinib -0.031 | [1] 0.025 | dasatinib 0.009 | [2] -0.017 | [3] 0.036 | quisinostat 0.035 | tipifarnib 0 | [4] -0.048 | [5] -0.008 | [6] -0.004 | [7] -0.007 | vorinostat -0.187 | silmitasertib 0.023 | [8] -0.119 | entospletinib 0.027

CYSTM1 (UniProt Q9H1C7)
inactive: nilotinib -0.055 | [1] 0.109 | dasatinib 0.11 | [2] 0.007 | [3] -0.045 | quisinostat -0.197 | tipifarnib -0.06 | [4] -0.053 | [5] 0.069 | [6] -0.037 | [7] -0.317 | vorinostat 0.093 | silmitasertib -0.055 | [8] -0.135 | entospletinib -0.082

DAP3 (UniProt P51398)
inactive: nilotinib 0 | [1] 0 | dasatinib 0.024 | [2] 0.003 | [3] 0.032 | quisinostat -0.057 | tipifarnib -0.011 | [4] 0.035 | [5] 0.02 | [6] 0.026 | [7] -0.022 | vorinostat -0.083 | silmitasertib 0.012 | [8] 0.071 | entospletinib 0.003

DCUN1D5 (UniProt Q9BTE7)
inactive: nilotinib 0.009 | [1] 0.001 | dasatinib -0.018 | [2] 0.01 | [3] 0.002 | quisinostat -0.097 | tipifarnib -0.062 | [4] 0.058 | [5] 0.031 | [6] 0.006 | [7] 0.003 | vorinostat -0.18 | silmitasertib 0.084 | [8] -0.015 | entospletinib 0.06

DDX39B (UniProt F6R6M7)
inactive: nilotinib -0.278 | [1] 0.05 | [2] 0.016 | tipifarnib 0.219

DCAF7 (UniProt P61962)
inactive: nilotinib 0.021 | [1] 0.019 | dasatinib -0.019 | [2] 0.02 | [3] -0.009 | quisinostat -0.043 | tipifarnib -0.013 | [4] 0.066 | [5] -0.008 | [6] -0.002 | [7] -0.003 | vorinostat -0.143 | silmitasertib 0.088 | [8] -0.019 | entospletinib -0.01

CYTH2 (UniProt Q99418)
inactive: nilotinib 0.01 | [1] -0.112 | dasatinib -0.009 | [2] 0.001 | [3] -0.018 | tipifarnib 0.018 | [5] 0.015 | [6] -0.005 | vorinostat -0.139 | silmitasertib 0.044 | entospletinib -0.022

2 neighbouring records from above:
DCAF7 (UniProt P61962)
inactive: nilotinib 0.021 | [1] 0.019 | dasatinib -0.019 | [2] 0.02 | [3] -0.009 | quisinostat -0.043 | tipifarnib -0.013 | [4] 0.066 | [5] -0.008 | [6] -0.002 | [7] -0.003 | vorinostat -0.143 | silmitasertib 0.088 | [8] -0.019 | entospletinib -0.01

CYTH2 (UniProt Q99418)
inactive: nilotinib 0.01 | [1] -0.112 | dasatinib -0.009 | [2] 0.001 | [3] -0.018 | tipifarnib 0.018 | [5] 0.015 | [6] -0.005 | vorinostat -0.139 | silmitasertib 0.044 | entospletinib -0.022

The listing continues.

DBNDD1 isoform 3 (UniProt Q9H9R9)
inactive: nilotinib 0.09 | [1] -0.223 | dasatinib -0.079 | [2] 0.085 | [3] -0.427 | quisinostat -0.139 | tipifarnib 0.044 | [4] 0.018 | [5] -0.064 | [6] 0.005 | vorinostat -0.005 | silmitasertib -0.103 | [8] 0.095 | entospletinib 0.305

CYP2R1 (UniProt Q6VVX0)
inactive: nilotinib -0.086 | [1] 0.038 | dasatinib 0.047 | [2] 0.036 | [3] 0.011 | tipifarnib -0.037 | [5] -0.042 | [6] 0.063 | [7] -0.017 | vorinostat 0.085 | silmitasertib -0.029 | entospletinib 0.021

DESI1 (UniProt Q6ICB0)
inactive: nilotinib 0.068 | [1] 0.049 | dasatinib -0.062 | [2] -0.051 | [3] 0.023 | quisinostat -0.077 | tipifarnib -0.068 | [4] 0.1 | [7] -0.078 | [8] -0.071 | entospletinib -0.085

DDX51 (UniProt Q8N8A6)
inactive: nilotinib 0.159 | [1] -0.149 | dasatinib -0.049 | [2] -0.015 | [3] 0.069 | quisinostat -0.054 | tipifarnib 0.138 | [4] 0.054 | [5] 0.073 | [6] 0.002 | vorinostat -0.161 | silmitasertib 0.045 | [8] 0.049

DCTD (UniProt D6RAD7)
inactive: nilotinib -0.13 | [1] 0.017 | [2] 0.083 | tipifarnib 0.109

DDX11 (UniProt Q96FC9)
inactive: nilotinib -0.024 | [1] -0.061 | dasatinib -0.03 | [2] -0.012 | [3] -0.011 | quisinostat -0.119 | tipifarnib 0.074 | [4] 0.04 | [6] 0.017 | [7] -0.036 | vorinostat -0.308 | silmitasertib 0.033 | [8] -0.028

DDX28 (UniProt Q9NUL7)
inactive: nilotinib 0.037 | [1] 0.077 | dasatinib -0.001 | [2] -0.029 | [3] 0.099 | quisinostat 0.009 | tipifarnib -0.036 | [4] -0.017 | [6] 0.167 | vorinostat -0.149 | silmitasertib -0.155 | [8] 0

DDX31 (UniProt Q9H8H2)
inactive: nilotinib -0.035 | [1] 0.02 | dasatinib -0.04 | [2] -0.017 | [3] -0.022 | quisinostat 0.005 | tipifarnib 0.018 | [4] 0.111 | [5] 0.099 | [6] 0.027 | [7] 0.027 | vorinostat 0.039 | silmitasertib -0.041 | [8] -0.048 | entospletinib -0.014

DDR1 isoform 5 (UniProt Q08345)
inactive: nilotinib 0.036 | [1] 0.013 | dasatinib 0.083 | [2] -0.216 | [3] 0.103 | quisinostat 0.045 | tipifarnib -0.012 | [4] -0.054 | [8] -0.026 | entospletinib -0.153

DCAF4 (UniProt Q8WV16)
inactive: nilotinib 0.019 | [1] 0.089 | dasatinib -0.007 | [2] -0.131 | [3] -0.073 | quisinostat -0.152 | tipifarnib 0.138 | [4] -0.001 | [5] -0.16 | [8] 0.033 | entospletinib -0.087

DBNL (UniProt Q9UJU6)
inactive: nilotinib -0.058 | [1] -0.081 | dasatinib -0.011 | [2] -0.109 | [3] 0.156 | tipifarnib -0.002 | [5] -0.05 | [6] 0.062 | vorinostat -0.063 | silmitasertib 0.002

DCAF10 (UniProt Q5QP82)
inactive: nilotinib -0.011 | [1] 0.076 | dasatinib -0.07 | [2] 0.019 | [3] 0.055 | quisinostat 0.04 | tipifarnib 0.04 | [4] 0.044 | [6] 0.063 | [7] -0.027 | vorinostat 0.012 | silmitasertib 0 | [8] -0.071 | entospletinib -0.002

CYREN isoform 4 (UniProt Q9BWK5)
inactive: nilotinib 0.197 | [1] -0.11 | dasatinib 0.082 | [2] 0.105 | [3] -0.051 | quisinostat -0.058 | tipifarnib -0.288 | [4] 0.007 | [6] -0.047 | vorinostat -0.006 | silmitasertib -0.033 | [8] -0.053

DDX19A (UniProt Q9NUU7)
inactive: nilotinib -0.023 | [1] 0.045 | dasatinib 0.048 | [2] -0.008 | [3] 0.02 | quisinostat -0.024 | tipifarnib -0.044 | [4] -0.022 | [5] -0.004 | [6] 0.03 | [7] 0.023 | vorinostat -0.045 | silmitasertib -0.032 | [8] -0.004 | entospletinib -0.013

DDX46, A0A0C4DG89
inactive: nilotinib -0.026 | [1] -0.293 | dasatinib 0.027 | [2] -0.195 | [3] -0.04 | tipifarnib -0.281 | [5] 0.032 | [7] -0.041 | entospletinib -0.093

CYTH1 (UniProt Q15438)
inactive: nilotinib 0.056 | [1] -0.143 | [2] 0.162 | quisinostat -0.007 | tipifarnib -0.209 | [4] -0.009 | [5] 0.087 | [6] 0.018 | vorinostat -0.072 | silmitasertib 0.056 | [8] 0.052 | entospletinib -0.003

DDX18 (UniProt Q9NVP1)
inactive: nilotinib 0.004 | [1] -0.002 | dasatinib 0.004 | [2] 0.001 | [3] 0.019 | quisinostat 0.009 | tipifarnib 0.002 | [4] 0.038 | [5] -0.019 | [6] 0 | [7] 0 | vorinostat 0.071 | silmitasertib 0.048 | [8] -0.022 | entospletinib 0.008

Source: the supplement of paper PMC10849652
